The entries are a selection whose mix differs from that of the whole data set. Calls are pooled over several reports, among them a noisy single-well screen. The list shows a part of the results.
How the values were obtained:
Conditions in all cases: stereoisomer not certain
OR1L1 = tested on: T1, OR1L1
T1 sequence (whole entry): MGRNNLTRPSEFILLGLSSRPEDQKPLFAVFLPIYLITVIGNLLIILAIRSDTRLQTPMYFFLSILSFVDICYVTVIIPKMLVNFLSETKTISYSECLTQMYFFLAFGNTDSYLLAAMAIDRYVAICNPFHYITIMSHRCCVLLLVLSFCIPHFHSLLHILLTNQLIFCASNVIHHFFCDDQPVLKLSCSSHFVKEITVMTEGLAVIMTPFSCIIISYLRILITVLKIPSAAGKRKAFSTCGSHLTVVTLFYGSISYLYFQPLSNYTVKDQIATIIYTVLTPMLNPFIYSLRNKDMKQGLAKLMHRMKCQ
Procedure, shortened: (§1)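 Each entry records the cell line, G-protein, co-transfected protein and tags used. Methods varied with the source, often transient luciferase assays in mammalian cell lines. A receptor–molecule pair is called responsive (active) if the original authors judged its signal statistically different from baseline and non-responsive (inactive) otherwise.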

OR1L3 (Homo sapiens) = target: T2, OR1L3 (Homo sapiens) (UniProt Q8NH93)
T2 sequence (whole entry): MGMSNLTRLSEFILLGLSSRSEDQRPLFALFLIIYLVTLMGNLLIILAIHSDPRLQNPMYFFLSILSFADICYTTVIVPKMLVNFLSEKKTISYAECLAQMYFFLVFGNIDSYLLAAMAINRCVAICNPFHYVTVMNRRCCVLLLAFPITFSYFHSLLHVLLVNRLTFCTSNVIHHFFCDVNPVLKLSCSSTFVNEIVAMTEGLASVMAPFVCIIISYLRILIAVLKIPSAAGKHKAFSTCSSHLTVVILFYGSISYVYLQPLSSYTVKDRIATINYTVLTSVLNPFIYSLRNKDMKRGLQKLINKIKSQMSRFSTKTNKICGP
Procedure, shortened: as §1

OR1L4 = tested on: T3, OR1L4
T3 sequence (whole entry): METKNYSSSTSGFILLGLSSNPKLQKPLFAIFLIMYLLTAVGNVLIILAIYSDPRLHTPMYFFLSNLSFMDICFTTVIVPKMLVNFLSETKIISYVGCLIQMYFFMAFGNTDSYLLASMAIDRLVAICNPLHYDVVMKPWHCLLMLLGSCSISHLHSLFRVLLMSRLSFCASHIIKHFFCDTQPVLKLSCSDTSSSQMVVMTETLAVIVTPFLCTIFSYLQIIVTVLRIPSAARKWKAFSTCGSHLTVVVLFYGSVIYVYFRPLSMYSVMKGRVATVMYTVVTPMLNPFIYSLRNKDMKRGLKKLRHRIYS
Procedure, shortened: as §1

OR1L6 = tested on: T4, OR1L6
T4 sequence (whole entry): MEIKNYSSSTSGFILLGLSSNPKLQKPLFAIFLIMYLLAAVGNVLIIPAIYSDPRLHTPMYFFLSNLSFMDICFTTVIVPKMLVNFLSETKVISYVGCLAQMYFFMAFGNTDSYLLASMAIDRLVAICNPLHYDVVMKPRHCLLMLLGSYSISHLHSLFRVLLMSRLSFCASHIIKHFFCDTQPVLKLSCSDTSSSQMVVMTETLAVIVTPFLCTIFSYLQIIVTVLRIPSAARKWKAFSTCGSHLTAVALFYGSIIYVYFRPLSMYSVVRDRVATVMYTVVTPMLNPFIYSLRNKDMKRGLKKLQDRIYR
Procedure, shortened: as §1

OR1L8 (Homo sapiens) = target: T5, OR1L8 (Homo sapiens) (UniProt Q8NGR8)
T5 sequence (whole entry): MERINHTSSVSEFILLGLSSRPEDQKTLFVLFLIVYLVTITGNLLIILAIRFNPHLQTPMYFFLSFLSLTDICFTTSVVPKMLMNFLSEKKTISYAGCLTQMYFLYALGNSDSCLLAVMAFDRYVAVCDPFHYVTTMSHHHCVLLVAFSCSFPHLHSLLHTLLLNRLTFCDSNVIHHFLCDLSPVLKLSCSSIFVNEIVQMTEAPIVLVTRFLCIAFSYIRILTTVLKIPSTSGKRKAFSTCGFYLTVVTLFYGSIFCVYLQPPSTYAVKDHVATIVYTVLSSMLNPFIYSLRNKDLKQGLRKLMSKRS
Procedure, shortened: as §1

OR1M1 = tested on: T6, OR1M1
T6 sequence (whole entry): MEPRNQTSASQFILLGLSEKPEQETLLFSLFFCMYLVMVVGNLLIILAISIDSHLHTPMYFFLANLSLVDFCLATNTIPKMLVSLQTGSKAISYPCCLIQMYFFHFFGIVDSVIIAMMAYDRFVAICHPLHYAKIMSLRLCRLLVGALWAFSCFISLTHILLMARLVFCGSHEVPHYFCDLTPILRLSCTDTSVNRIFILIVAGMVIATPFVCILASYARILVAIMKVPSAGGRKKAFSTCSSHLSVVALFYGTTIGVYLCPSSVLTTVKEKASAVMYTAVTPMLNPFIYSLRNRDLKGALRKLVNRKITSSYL
Procedure, shortened: as §1

OR1N1 (Homo sapiens) = target: T7, OR1N1 (Homo sapiens) (UniProt Q8NGS0)
T7 sequence (whole entry): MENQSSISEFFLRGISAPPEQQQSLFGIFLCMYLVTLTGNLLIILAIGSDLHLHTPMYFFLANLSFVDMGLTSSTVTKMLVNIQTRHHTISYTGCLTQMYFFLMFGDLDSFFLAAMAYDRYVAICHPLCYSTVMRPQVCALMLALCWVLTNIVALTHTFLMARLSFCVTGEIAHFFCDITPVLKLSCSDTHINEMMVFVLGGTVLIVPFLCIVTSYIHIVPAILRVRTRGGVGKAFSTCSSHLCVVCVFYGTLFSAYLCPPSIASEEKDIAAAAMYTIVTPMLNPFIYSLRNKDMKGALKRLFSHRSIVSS
Procedure, shortened: as §1

OR1N2 (Homo sapiens) = target: T8, OR1N2 (Homo sapiens) (UniProt Q8NGR9)
T8 sequence (whole entry): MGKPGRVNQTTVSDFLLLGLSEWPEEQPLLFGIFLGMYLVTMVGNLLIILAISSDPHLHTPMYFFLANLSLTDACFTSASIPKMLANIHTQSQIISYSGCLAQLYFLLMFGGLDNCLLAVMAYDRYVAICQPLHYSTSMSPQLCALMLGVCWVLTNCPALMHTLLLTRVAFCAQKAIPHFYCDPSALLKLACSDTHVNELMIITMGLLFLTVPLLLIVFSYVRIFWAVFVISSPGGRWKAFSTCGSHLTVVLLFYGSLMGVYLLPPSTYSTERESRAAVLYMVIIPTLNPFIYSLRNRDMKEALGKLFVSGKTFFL
Procedure, shortened: as §1

OR1N2 = tested on: T9, OR1N2
T9 sequence (whole entry): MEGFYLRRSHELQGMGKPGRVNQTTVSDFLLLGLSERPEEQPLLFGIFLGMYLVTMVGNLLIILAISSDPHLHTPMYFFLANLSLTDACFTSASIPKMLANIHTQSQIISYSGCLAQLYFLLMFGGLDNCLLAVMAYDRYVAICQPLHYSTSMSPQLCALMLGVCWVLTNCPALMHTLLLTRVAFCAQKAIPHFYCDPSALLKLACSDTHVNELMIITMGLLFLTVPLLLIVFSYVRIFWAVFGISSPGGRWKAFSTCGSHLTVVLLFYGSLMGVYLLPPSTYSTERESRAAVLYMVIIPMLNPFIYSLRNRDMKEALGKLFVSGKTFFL
Procedure, shortened: as §1

OR1Q1 = tested on: T10, OR1Q1
T10 sequence (whole entry): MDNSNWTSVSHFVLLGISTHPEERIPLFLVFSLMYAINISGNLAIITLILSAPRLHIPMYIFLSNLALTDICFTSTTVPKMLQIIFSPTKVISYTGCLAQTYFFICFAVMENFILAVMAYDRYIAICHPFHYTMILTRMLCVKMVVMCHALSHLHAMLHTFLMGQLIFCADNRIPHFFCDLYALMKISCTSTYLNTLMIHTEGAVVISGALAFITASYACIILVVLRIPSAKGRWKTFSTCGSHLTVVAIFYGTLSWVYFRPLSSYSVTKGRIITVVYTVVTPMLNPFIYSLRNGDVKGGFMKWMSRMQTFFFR
Procedure, shortened: as §1

OR1S1 = tested on: T11, OR1S1
T11 sequence (whole entry): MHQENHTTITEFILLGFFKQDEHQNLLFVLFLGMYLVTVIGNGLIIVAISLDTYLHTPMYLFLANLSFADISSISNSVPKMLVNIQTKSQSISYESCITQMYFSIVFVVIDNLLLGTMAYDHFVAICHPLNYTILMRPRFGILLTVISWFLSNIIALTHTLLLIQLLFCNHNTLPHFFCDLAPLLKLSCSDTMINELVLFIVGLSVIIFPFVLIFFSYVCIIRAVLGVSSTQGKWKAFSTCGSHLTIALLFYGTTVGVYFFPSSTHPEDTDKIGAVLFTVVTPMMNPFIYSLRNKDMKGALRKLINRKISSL
Procedure, shortened: as §1

OR1S2 = tested on: T12, OR1S2
T12 sequence (whole entry): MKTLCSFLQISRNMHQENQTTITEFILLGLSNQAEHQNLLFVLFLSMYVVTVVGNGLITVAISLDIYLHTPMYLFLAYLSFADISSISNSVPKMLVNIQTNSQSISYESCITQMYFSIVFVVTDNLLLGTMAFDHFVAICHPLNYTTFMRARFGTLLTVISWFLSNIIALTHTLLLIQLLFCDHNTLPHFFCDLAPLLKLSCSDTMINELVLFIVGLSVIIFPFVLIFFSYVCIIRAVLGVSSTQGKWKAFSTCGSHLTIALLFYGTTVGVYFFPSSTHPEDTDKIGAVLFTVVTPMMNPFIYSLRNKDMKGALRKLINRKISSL
Procedure, shortened: as §1

OR2A12 (Homo sapiens) = target: T13, OR2A12 (Homo sapiens) (UniProt Q8NGT7)
T13 sequence (whole entry): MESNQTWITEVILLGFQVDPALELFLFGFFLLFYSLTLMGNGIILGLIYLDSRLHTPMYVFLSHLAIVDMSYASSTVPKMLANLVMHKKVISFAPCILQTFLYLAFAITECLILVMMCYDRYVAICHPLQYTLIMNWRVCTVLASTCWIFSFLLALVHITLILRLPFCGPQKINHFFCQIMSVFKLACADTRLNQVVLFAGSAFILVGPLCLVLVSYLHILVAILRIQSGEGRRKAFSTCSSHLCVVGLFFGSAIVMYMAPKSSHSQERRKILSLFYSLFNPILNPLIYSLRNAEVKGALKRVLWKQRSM
Procedure, shortened: as §1

OR2A1 (Homo sapiens) = target: T14, OR2A1 (Homo sapiens) (UniProt Q8NGT9)
T14 sequence (whole entry): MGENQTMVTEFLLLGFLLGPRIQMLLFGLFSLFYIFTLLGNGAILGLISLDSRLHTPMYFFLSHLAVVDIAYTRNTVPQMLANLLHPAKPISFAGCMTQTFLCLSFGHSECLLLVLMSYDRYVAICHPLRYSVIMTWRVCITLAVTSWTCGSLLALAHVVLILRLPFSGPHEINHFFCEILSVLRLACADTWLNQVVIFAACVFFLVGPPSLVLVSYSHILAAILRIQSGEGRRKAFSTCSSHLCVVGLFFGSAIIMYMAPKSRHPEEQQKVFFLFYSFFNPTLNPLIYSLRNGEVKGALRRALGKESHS
Procedure, shortened: as §1

Measured: odorant receptor agonist call

c1cnccn1
not listed: OR2A1 (Homo sapiens)
inactive: all other assays above

CC(C)C(=O)O
active: OR1M1
not listed: OR2A1 (Homo sapiens)
inactive: all other assays above

CC(=O)c1ccccc1
not listed: OR1L6 | OR1S1 | OR2A1 (Homo sapiens)
inactive: all other assays above

CCCCCCCCOC(C)=O
not listed: OR2A1 (Homo sapiens)
inactive: all other assays above

CC1=NC(C)SC1C (stereo unspecified)
active: OR2A12 (Homo sapiens)
not listed: OR1L6 | OR1S1 | OR2A1 (Homo sapiens)
inactive: all other assays above

C=C(C)C1CCC2=CC(=O)CC(C)C2(C)C1 (stereo unspecified)
active: OR1S1

CCCCCCCOC(C)=O
active: OR1M1
not listed: OR2A1 (Homo sapiens)
inactive: all other assays above

C=CCc1ccc(O)c(OC)c1
inactive: OR2A1 (Homo sapiens)

COC(=O)c1ccccc1O
not listed: OR2A1 (Homo sapiens)
inactive: all other assays above

CCCCCCCCC=O
inactive: OR2A1 (Homo sapiens)

CCCCCC(C)=O
not listed: OR1L6 | OR1S1 | OR2A1 (Homo sapiens)
inactive: all other assays above

O=C1CCCCCCCCCCCCCCO1
not listed: OR2A1 (Homo sapiens)
inactive: all other assays above

C=CCSCC=C
not listed: OR2A1 (Homo sapiens)
inactive: all other assays above

CC(C)(O)CCCC1=CCC(C=O)CC1 (stereo unspecified)
inactive: OR2A1 (Homo sapiens)
active: OR1S1

O=C1CCCCC1
active: OR1L3 (Homo sapiens) | OR1L4 | OR2A12 (Homo sapiens)
not listed: OR1L6 | OR1S1 | OR2A1 (Homo sapiens)
inactive: all other assays above

C=C(C)C1CC=C(C)C(=O)C1 (stereo unspecified)
inactive: OR2A1 (Homo sapiens)

c1ccc(Oc2ccccc2)cc1
not listed: OR2A1 (Homo sapiens)
inactive: all other assays above

CCCCCOC(C)=O
active: OR1L3 (Homo sapiens) | OR1L4 | OR1L8 (Homo sapiens)
not listed: OR1L6 | OR2A1 (Homo sapiens)
inactive: all other assays above

— the M2OR odorant receptor database
